The text below walks through data of PubChem BioAssay AID330 (DTP/NCI, 2004).

This assay deals with P388 leukemia ip, CD2F1 mice, survival T/C. Kind of assay: NCI In Vivo Anticancer Drug Screen. Data for tumor model P388 Leukemia (intraperitoneal) in CD2F1 (CDF1) mice. As to conditions: T/C endpoint: median survival time, higher T/C = longer survival.
[1] abbreviates: dose: 100.0 mg/kg/injection, schedule: Q01DX005 (ip), vehicle: Klucel (hydroxypropylcellulose) (HPC).
[2] abbreviates: dose: 200.0 mg/kg/injection, schedule: Q01DX005 (ip), vehicle: Klucel (hydroxypropylcellulose) (HPC).
[3] abbreviates: dose: 50.0 mg/kg/injection, schedule: Q01DX009 (ip), vehicle: Klucel (hydroxypropylcellulose) (HPC).
Setting [4] is: dose: 100.0 mg/kg/injection, schedule: Q01DX009 (ip), vehicle: Klucel (hydroxypropylcellulose) (HPC).
[5] abbreviates: dose: 200.0 mg/kg/injection, schedule: Q01DX009 (ip), vehicle: Klucel (hydroxypropylcellulose) (HPC).
[6] abbreviates: dose: 1.5 mg/kg/injection, schedule: Q01DX009 (ip), vehicle: saline with Tween-80.
Setting [7] is: dose: 3.0 mg/kg/injection, schedule: Q01DX009 (ip), vehicle: saline with Tween-80.
[8] abbreviates: dose: 100.0 mg/kg/injection, schedule: Q04DX003 (ip), vehicle: saline with Tween-80.
Where [9] appears, read: dose: 200.0 mg/kg/injection, schedule: Q04DX002 (ip), vehicle: saline with Tween-80.
The mark [10] stands for this setting: dose: 400.0 mg/kg/injection, schedule: Q04DX002 (ip), vehicle: saline with Tween-80.
Setting [11] is: dose: 200.0 mg/kg/injection, schedule: Q01DX009 (ip), vehicle: saline with Tween-80.
Setting [12] is: dose: 400.0 mg/kg/injection, schedule: Q01DX009 (ip), vehicle: saline with Tween-80.
Setting [13] is: dose: 100.0 mg/kg/injection, schedule: Q01DX009 (ip), vehicle: distilled water + Tween-80.
Setting [14] is: dose: 100.0 mg/kg/injection, schedule: Q01DX005 (ip), vehicle: saline with Tween-80.

The structures appear in SMILES notation. The list shows only some results of the screen, not a fair sample: it is rich in T/C values a quarter to a half above the control, in often repeated tests (any T/C) and in doses without a T/C. Other doses and runs of a compound stand elsewhere. T/C is the treated group as % of the vehicle group. Some doses have a count of surviving animals in place of a T/C: the source holds a T/C of zero for them, seemingly a mark for toxic or unscored doses. Some doses without a T/C left all or most animals alive at the check, yet need not have been tolerated: the source hardly ever lists a survival T/C far under the control, and the zero likely stands for such cases as well. Survivors were counted at the toxicity check, usually on the fifth day, unless a day is given; later deaths do not show. Schedule codes are those of the source, read here as Q, the interval in days (D) or hours (H), X, the number of doses. Some entries hold several experiments; the results are listed from low to high. For survival time, this PubChem deposit counts one and a half times the control or more as active, and values a quarter to a half above the control carry no call in these data; other NCI protocols may use other cut-offs. Brackets with × say how often a value occurs here. Some T/C values carry the count of animals alive at the toxicity check (mostly the fifth day); without a count, all were alive then.

Consider `COc1cc2c(c3c1c(=O)c1cccc(F)c1n3C)C=CC(C)(C)O2`, for which the T/C by setting is: under setting [1], 127 % of control; under setting [2], 138 and 140 % of control.

On to `NC(=S)N/N=C/c1ncccc1O`, for which the T/C is 134 % of control (dose: 12.5 mg/kg/injection, schedule: Q01DX005 (ip), vehicle: saline); 135 [4 of 6 alive] and 137 % of control (dose: 12.5 mg/kg/injection, schedule: Q01DX009 (ip), vehicle: saline); 144 % of control (dose: 25.0 mg/kg/injection, schedule: Q01DX005 (ip), vehicle: saline); 148 % of control (dose: 25.0 mg/kg/injection, schedule: Q01DX005 (ip), vehicle: suspension in saline); 128 % of control [4 of 6 alive] (dose: 25.0 mg/kg/injection, schedule: Q01DX009 (ip), vehicle: saline); 145 % of control (dose: 50.0 mg/kg/injection, schedule: Q01DX005 (ip), vehicle: suspension in saline). Also, the survivor count reads like this: (dose: 100.0 mg/kg/injection, schedule: Q01DX009 (ip), vehicle: saline) 4 of 6; (dose: 400.0 mg/kg/injection, schedule: Q01DX005 (ip), vehicle: saline) 5 of 6.

As for `C/C(=N\NC(=S)N1CC2CCC(CC2)C1)c1ccccn1`, the T/C (dose: 6.25 mg/kg/injection, schedule: Q01DX009 (ip), vehicle: Klucel (hydroxypropylcellulose) (HPC)) was 126 % of control [5 of 6 alive]. The survivor count is 6 of 6 (dose: 12.5 mg/kg/injection, schedule: Q01DX009 (ip), vehicle: Klucel (hydroxypropylcellulose) (HPC)); 6 of 6 (dose: 25.0 mg/kg/injection, schedule: Q01DX009 (ip), vehicle: Klucel (hydroxypropylcellulose) (HPC)); 0 of 6 under setting [3]; 0 of 6 under setting [4]; 0 of 6 under setting [5].

As for `CCNC(=NC)c1ccc(NC(=O)c2ccc(C(=O)Nc3ccc(C(=NC)NCC)cc3)cc2)cc1`, the T/C by setting is: under setting [6], 127 % of control (2×); under setting [7], 136 % of control. Also, the survivor count is, setting by setting: under setting [6], 6 of 6; under setting [7], 6 of 6; (dose: 6.0 mg/kg/injection, schedule: Q01DX009 (ip), vehicle: saline with Tween-80) 6 of 6; (dose: 25.0 mg/kg/injection, schedule: Q04DX003 (ip), vehicle: saline with Tween-80) 1 of 6; (dose: 50.0 mg/kg/injection, schedule: Q04DX003 (ip), vehicle: saline with Tween-80) 0 of 6; under setting [8], 0 of 6.

In the case of `N#C[C@@H]1C2C=CC(CC2)[C@H]1C#N`, the survivor count is listed as 5 of 6 (dose: 5.0 mg/kg/injection, schedule: Q01DX009 (ip), vehicle: saline with Tween-80); 0 of 6 under setting [8]; 0 of 6 (dose: 200.0 mg/kg/injection, schedule: Q04DX003 (ip), vehicle: saline with Tween-80); 0 of 6 (dose: 400.0 mg/kg/injection, schedule: Q04DX003 (ip), vehicle: saline with Tween-80).

For `COc1ccc(/C=C/C(=O)c2cc(C(=O)O)c(OC)cc2OC)cc1OC`, the T/C by setting is: (dose: 100.0 mg/kg/injection, schedule: Q01DX009 (ip), vehicle: suspension in saline) 135 % of control; (dose: 200.0 mg/kg/injection, schedule: Q01DX009 (ip), vehicle: suspension in saline) 132 and 134 % of control [5 of 6 alive]. For the same molecule, the survivor count (dose: 400.0 mg/kg/injection, schedule: Q01DX009 (ip), vehicle: suspension in saline) was 4 of 6.

On to `CCCCOc1cc(N)nc2ccccc12`, for which the survivor count reads like this: (dose: 100.0 mg/kg/injection, schedule: Q04DX002 (ip), vehicle: saline with Tween-80) 2 of 6; under setting [9], 0 of 6; under setting [10], 0 of 6.

As for `Cc1cc(N)c(C)c(C)c1O`, for the setting “dose: 100.0 mg/kg/injection, schedule: Q01DX009 (ip), vehicle: saline with Tween-80”, the survivor count was 3 of 6.

As to `CCN=C(Cl)N(C)c1ccccc1`, under setting [5], the survivor count is 3 of 6.

Turning to `N#Cc1ccc(NN=NCCOCCCl)cc1`, the survivor count is listed as 4 of 6 under setting [11] and 0 of 6 under setting [12].

Consider `COc1ccc(-n2c(SC)nccc2=O)cc1`, for which the survivor count (dose: 400.0 mg/kg/injection, schedule: Q04DX003 (ip), vehicle: Klucel (hydroxypropylcellulose) (HPC)) is reported as 6 of 6.

On to `NNP(=S)(NN)Oc1ccccc1`, for which the survivor count runs as follows: (dose: 50.0 mg/kg/injection, schedule: Q01DX005 (ip), vehicle: Klucel (hydroxypropylcellulose) (HPC)) 0 of 5; under setting [1], 0 of 5; under setting [2], 0 of 5.

In the case of `CCOC(=O)C1=S=C(SC)N(C)C1=O`, the survivor count is, setting by setting: under setting [11], 3 of 6; under setting [12], 0 of 6.

Regarding `CC(=O)Nc1ccc(C(=O)CCl)c(Cl)c1`, the survivor count under setting [3] was 1 of 6 and 2 of 6; the survivor count under setting [4] was 0 of 6; the survivor count under setting [5] is 0 of 6.

For the molecule `CCCCCCCCCCCCCCCC[N+](C)(C)CC(=O)O`, the survivor count is, setting by setting: (dose: 45.0 mg/kg/injection, schedule: Q01DX009 (ip), vehicle: saline with Tween-80) 6 of 6; (dose: 90.0 mg/kg/injection, schedule: Q01DX009 (ip), vehicle: saline with Tween-80) 5 of 6; (dose: 180.0 mg/kg/injection, schedule: Q01DX009 (ip), vehicle: saline with Tween-80) 0 of 6.

With `CN(C)CCC(c1ccccc1)C(CO)c1ccccc1` (stereo unspecified), for the setting “dose: 400.0 mg/kg/injection, schedule: Q01DX001 (ip), vehicle: Klucel (hydroxypropylcellulose) (HPC)”, the survivor count is reported as 1 of 6.

With `O=C(Nc1nncs1)c1cccs1`, the T/C was 133 % of control under setting [9]; 145 and 149 % of control under setting [10]; 132 % of control (dose: 400.0 mg/kg/injection, schedule: Q04DX002 (ip), vehicle: saline); 149 % of control (dose: 600.0 mg/kg/injection, schedule: Q04DX002 (ip), vehicle: saline).

Turning to `Oc1c(Br)cc(Br)cc1/C=N/NC(=S)N/N=C/c1cc(Br)cc(Br)c1O`, the T/C by setting is: (dose: 50.0 mg/kg/injection, schedule: Q01DX009 (ip), vehicle: distilled water + Tween-80) 137 % of control; under setting [13], 144 % of control. Besides, the survivor count runs as follows: under setting [13], 2 of 6; (dose: 200.0 mg/kg/injection, schedule: Q01DX009 (ip), vehicle: distilled water + Tween-80) 3 of 6; (dose: 400.0 mg/kg/injection, schedule: Q01DX009 (ip), vehicle: distilled water + Tween-80) 1 of 6.

Take `O=C(NC(O)C(Cl)(Cl)Cl)c1ccccc1` (stereo unspecified): the survivor count under setting [14] is 6 of 6.

As for `O=C(N/N=C/c1c(O)ccc2ccccc12)C(=O)N/N=C/c1c(O)ccc2ccccc12`, the T/C (dose: 50.0 mg/kg/injection, schedule: Q01DX005 (ip), vehicle: saline with Tween-80) was 144 % of control. Also, the survivor count is reported as 6 of 6 under setting [14] and 4 of 6 (dose: 200.0 mg/kg/injection, schedule: Q01DX005 (ip), vehicle: saline with Tween-80).

Turning to `CCN(CC)CCCNc1cc(OC)cc2nc3cc(Cl)ccc3nc12`, for the setting “dose: 200.0 mg/kg/injection, schedule: Q01DX005 (ip), vehicle: saline”, the survivor count is 3 of 5.

For the molecule `COc1cc2cccnc2c2[nH]c(=O)c3c(c12)CCC3`, the survivor count (dose: 400.0 mg/kg/injection, schedule: Q04DX003 (ip), vehicle: saline) is 2 of 6.
